# Measured values from PubChem BioAssay AID463199 (Broad Institute, 2010).
# Whole data set: some 2,300 compounds, median “growth induction” near -24, cut for the highest 2% near 42. The list shows a part of the results. Results with a measured potency or affinity are listed apart. Where no call is shown, the source marks the result inconclusive.
# Assay: restored growth of temperature-sensitive Burl-1 yeast – whole organism, S. cerevisiae, Burl-1 ts mutant, luminescence, counter-screen for SUMOylation pathway inhibitor project, dose response (AID 463199)
# Conditions: S. cerevisiae Burl-1 ts mutant growth, BacTiter-Glo, 38.5C 24 h; at 42 µM (top of the series)
row,SMILES,growth induction [%]
1,C[n+]1c(-c2ccccc2)cc(CCCCc2cc(-c3ccccc3)[n+](C)c(-c3ccccc3)c2)cc1-c1ccccc1,-57.5
